Laboratory results from patent EP4663658A1.
No constants are given. Whether binding was seen depends on the method and setting. Some binding calls cover weakened binding; strength is not graded here. Where a sequence is shown, tags or fusion partners need not be part of it.

Biological target: T1, CLL1 screening antigen CLL1-6×His (B918602) protein (UniProt Q5QGZ9)
T1 sequence (looked up): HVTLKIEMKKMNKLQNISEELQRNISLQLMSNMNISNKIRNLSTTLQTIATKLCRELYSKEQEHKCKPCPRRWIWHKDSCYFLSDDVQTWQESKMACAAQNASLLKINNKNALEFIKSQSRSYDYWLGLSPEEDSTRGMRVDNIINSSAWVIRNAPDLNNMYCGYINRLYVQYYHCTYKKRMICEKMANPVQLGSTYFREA
Assay: positive clone from phage ELISA on coated screening antigen CLL1-6×His (OD450 > 0.5, confirmed by a second ELISA)

B1: single-domain antibody CLL1-VHH-1 (VHH)
VHH: DVQLQESGGGLVQPGGSLRLSCAASGFTFGDYDMTWVRQAPGKGPEWVSAINSGGGSTYYADSVKGRFTISRDNAKNTLYLQMNSLKPEDTAVYYCATIDRLSTVVAGTYQPSDEYDYWGQGTQVTVSS
How did the binding turn out when B1 was run?
Its binding is “binds”.
